In US20070258982A1:
Results are given in words; binding and its absence hold for the method and conditions named. Binding calls can cover weak binding; strength is not graded here.

What was measured:
[1] = target: human IL-22 (human); experiment: ELISA: plate coated with 1 µg/ml antigen, IgG added at 1 µg/ml, HRP goat anti-human IgG, A450
[2] = target: rat IL-22 (rat); experiment: as above
[3] = target: monkey IL-22 (monkey); experiment: SPR (BIA)
[4] = target: rat IL-22 (rat); experiment: SPR (BIA)
[5] = target: monkey IL-22 (monkey); experiment: real-time biospecific interaction analysis (BIA)
[6] = target: rat IL-22 (rat); experiment: real-time biospecific interaction analysis (BIA)

| Binder | binding [1] | binding [2] | further results |
| --- | --- | --- | --- |
| 355E04 IgG (germlined) (antibody, V domains shown) VH: QVQLVQSGAEVKKPGASVKVSCKASGYTFTHYYMHWVRQAPGQGLEWVGWINPYTGGAFYAQKFQGRVTMTRDTSISTAYMELSRLRSDDTAVYYCAREPEKFDSPNAEIWGRGTLVTVSS VL: QAVLTQPPSVSGAPGQRVTISCTGSSSNIGAGYGVHWYQQLPGTAPKLLIYGNSNRPSGVPDRFSGSKSGTSASLAITGLQAEDEADYYCQSYDSSLSGYVFGGGTQLTVLG | binds | binds |  |
| 355B06 IgG (germlined) (antibody, V domains shown) VH: QVQLVQSGAEVKKPGASVKVSCKASGYTFTDYYMHWVRQAPGQGLEWVGWINPYTGSAFYAQKFRGRVTMTRDTSISTAYMELSRLRSDDTAVYYCAREPEKFGESSGQLWGRGTLVTVSS VL: QAVLTQPPSVSGAPGQRVTISCTGSSSNIGAGYGVHWYQQLPGTAPKLLIYGDSNRPSGVPDRFSGSKSGTSASLAITGLQAEDEADYYCQSYDSGLSGYVFGGGTQLTVLG | binds | binds |  |
| 356A11 IgG (germlined; Tables 6 and 9) (antibody, V domains shown) VH: QVQLVQSGAEVKKPGASVKVSCKASGYTFTNYYMHWVRQAPGQGLEWVGWINPYTGSAFYAQKFRGRVTMTRDTSISTAYMELSRLRSDDTAVYYCAREPEKFDSDDSDVWGRGTLVTVSS VL: QAVLTQPPSVSGAPGQRVTISCTGSSSNIGAGYGVHWYQQLPGTAPKLLIYGDSNRPSGVPDRFSGSKSGTSASLAITGLQAEDEADYYCQSYDNSLSGYVFGGGTQLTVLG | binds | binds |  |
| 087B03 IgG (germlined) (antibody, V domains shown) VH: EVQLVESGGGVVRPGGSLRLSCAASGFTFDDYGMNWVRQAPGKGLEWVSGVNWNGGTRDYAASVKGRFTISRDNAKNSLYLQMNSLRAEDTALYHCARGWYSGAAWNMGYWGRGTLVTVSS VL: QAALTQPASVSGSPGQSITISCTGASGDVGAYNFVSWYQQHPGKAPKLIIYDVNKRPSGVSNRFSGSKSGNTASLTISGLQAEDEADYYCSSYTSTFSVVFGGGTKLTVLG | binds |  |  |
| 166B06 IgG (germlined) (antibody, V domains shown) VH: QVQLVQSGAEVKKPGASVKVSCKASGYTFSDYYIHWVRQAPGQGLEWMGWVNPDTGGTRYAQKFQGRVTMTRDMSISTAYMELSRLRSDDTAVYYCARDLTGFDPFDIWGQGTLVTVSS VL: SSVLTQPPSVSVAPGKTARITCGGNNFRNKRVHWYQQKPGQAPVLVIYYDSDRPSGIPERFSGSRSGNTATLTISRVEAGDEADYYCQVWDLFNDNGVFGGGTKLTVLG | binds |  |  |
| 166G05 IgG (germlined) (antibody, V domains shown) VH: QVQLVQSGAEVKKPGASVKVSCKASGYTFSDYYIHWVRQAPGQGLEWMGWVNPDTGGTRYAQKFQGRVTMTRDMSISTAYMELSRLRSDDTAVYYCARDLTGFDPFDIWGQGTLVTVSS VL: SSVLTQPPSVSVAPGKTARITCGGNNFRNKRVHWYQQKPGQAPVLVIYYDSDRPSGIPERFSGSRSGNTATLTISRVEAGDEADYYCQVWDFLTDSGSFGGGTKLTVLG | binds |  |  |
| 354A08 IgG (germlined) (antibody, V domains shown) VH: QVQLVQSGAEVKKPGASVKVSCKASGYTFTDYYMHWVRQAPGQGLEWVGWINPYTGGAFYAQKFRGRVTMTRDTSISTAYMELSRLRSDDTAVYYCAREPERFGDSTGQVWGRGTLVTVSS VL: QAVLTQPPSVSGAPGQRVTISCTGSSSNIGAGYGVHWYQQLPGTAPKLLIYGNSNRPSGVPDRFSGSKSGTSASLAITGLQAEDEADYYCYHWDKEQSGYVFGGGTQLTVLG | binds |  |  |
| 368D04 IgG (non-germlined) (antibody, V domains shown) VH: EVQLVESGGGVVRPGGSLRLSCAASGFTFDDYGMNWVRQAPGKGLEWVSGVNWNGGTRDYAASVKGRFTISRDNAKNSLYLQMNSLRAEDTALYYCARGWYSGAAWNMGYWGRGTLVTVSS VL: QAVLTQPSSVSGSPGQSITISCTGASGDVGAYNFVSWYQQHPGKTPKLIIYDVNKRPSGVSNRFSGSKSGNTASLTISGLQAEDESDYYCASLVSDFSVVFGGGTKVTVLG | binds | binds |  |
| 062G05 IgG (non-germlined) (antibody, V domains shown) VH: QVQLVESGAEVKKPGASVKVSCKASGYTFTSYGISWVRQAPGQGLEWMGWISAYTGNTNYAQKFQGRVTMTTDTSTSTAYMELRSLRSDDTAVYYCARDRGYYDAFDIWGQGTLVTVSS VL: DIQMTQSPSTLSASIGDRVTITCRASEGIYHWLAWYQQKPGKAPKLLIYKASSLASGAPSRFSGSGFGTDFTLTISSLQPDDFATYYCQQMGEWKAAFGGGTKLEIKR | binds |  |  |
| 367D04 IgG (non-germlined) (antibody, V domains shown) VH: EVQLVESGGGVVRPGGSLRLSCAASGFTFDDYGMNWVRQAPGKGLEWVSGVNWNGGTRDYAASVKGRFTISRDNAKNSLYLQMNSLRAEDTALYYCARGWYSGSPWSLGHWGRGTLVTVSS VL: QAVLTQPSSVSGSPGQSVTISCTGASGDVGAYNFVSWYQQHPGKTPKLIIYDVNKRPSGVSNRFSGSKSGNTASLTISRLQAEDESDYYCSSYTSRYTTEFGGGTKVTVLG | binds |  |  |
| 375G06 IgG (non-germlined) (antibody, V domains shown) VH: EVQLVQSGAEVKKPGASVKVSCQASGYTFSDYYIHWVRQTPGQGFEWMGWVNPDTGGTRYAQKFQGWVTMTRDMSNTTAYMELPRLRDDDTAVYYCARDLTGYDYYDRWGQGTLVTVSS VL: QSVLTQPPSMSVAPGKTATITCGGNNFRNKRVHWYQQRPGQAPVLVIYYDSDRPSGIPERFSGSRSGNTATLTISRVEAGDEADFYCQVWDFLADEAMFGGGTKLTVL | binds |  |  |
| 376B10 IgG (non-germlined) (antibody, V domains shown) VH: EVQLVQSGAEVKKPGASVKVSCQASGYTFSDYYIHWVRQTPGQGFEWMGWVNPDTGGTRYAQKFQGWVTMTRDMSNTTAYMELPGLRDDDTAVYYCARDLTGYDQYTAWGQGTLVTVSS VL: QSVLTQPPSVSVAPGKTATITCGGNNFRNKRVHWYQQRPGQAPVLVIYYDSDRPSGIPERFSGSRSGNTATLTISRVEAGDEADFYCSTFDPFTDRPLFGGGTKLTVLG | binds |  |  |
| 356A11 human monoclonal anti-IL-22 antibody (Examples 10, 11, 14, 15) (antibody, V domains shown) VH: QVQLVQSGAEVKKPGASVKVSCKASGYTFTNYYMHWVRQAPGQGLEWVGWINPYTGSAFYAQKFRGRVTMTRDTSISTAYMELSRLRSDDTAVYYCAREPEKFDSDDSDVWGRGTLVTVSS VL: QAVLTQPPSVSGAPGQRVTISCTGSSSNIGAGYGVHWYQQLPGTAPKLLIYGDSNRPSGVPDRFSGSKSGTSASLAITGLQAEDEADYYCQSYDNSLSGYVFGGGTQLTVLG |  |  | binding [3]: binds; binding [4]: binds; binding [5]: binds; binding [6]: binds |
